The values below are quoted from earlier work in patent US10736889B2, “Method of treating dyskinesia” (Rutgers, The State University of New Jersey, priority 2011, dated 2020).

This data set relates to Parkinsonian primates and patients.

As to `CN1CC[C@]23c4c5ccc(O)c4O[C@H]2[C@@H](O)C=C[C@H]3[C@H]1C5` [Morphine], the dyskinetic movements result was “reduces dyskinetic movements”.
